Experiment [1] addresses vascular endothelial growth factor (VEGF) (UniProt P15692). The experiment can be described thus: ELISA. On the technique in general: In an ELISA, binding on a coated surface is turned into a signal by an enzyme label.
Experiment [2] has the same target. The experiment can be described thus: ELISA (FIG. 6C).

Sequences of proteins named here, by UniProt entry; tags and fusion partners are left off. A change or cut given only in a name is not applied to a line headed by its entry. A line that says so, or that is headed by a name, gives the form on record, which may keep a tag or linker.
vascular endothelial growth factor (VEGF) (P15692, form named): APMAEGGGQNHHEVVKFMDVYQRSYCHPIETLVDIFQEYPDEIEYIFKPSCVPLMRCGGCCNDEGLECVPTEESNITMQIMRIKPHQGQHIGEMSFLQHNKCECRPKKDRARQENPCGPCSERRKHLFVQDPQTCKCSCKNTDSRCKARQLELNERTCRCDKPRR

These are yes or no findings as the source states them, for the method shown. Some entries that bind do so weakly or less than the wild type.

B1: monoclonal antibody D5 (antibody, human IgG1, V domains shown)
VH: EVQLVESGGGLIQPGGSLRLSCAASGFTVSSNYMSWVRQAPGKGLEWVSVIYTGGGTYYADSVKGRFTISRDNSQNTLYLQMNSLRAEDTAVYYCAREAPFTAALYYWGQGTLVTVSS
VL: QSVLTQPPSASGSPGQSVTISCTGTSSDVGGYNSVSWYQQHPGKAPKLMIYEVTIRPSGVPDRFSGSKSGNTASLTVSGLQAEDEADYYCSSYAGNNNRVVFGGGTKLTVL
With B1, the binding entry in experiment [1] and in experiment [2] was “binds” each time.

For the origin of these results see patent US20220185911A1.
